Test results published in the supplement of paper PMC11348887.
Structures can show the parent of a compound that is named as a salt. ± gives the standard deviation of the averaged measurements. Some of the results follow. Small differences around the control level are noise.

Key:
Settings in all cases: 5 µM; treatment: days 7-14 after plating, readout day 21
[1] = tested on: hPSC-derived cortical neurons (WA09); experiment: nucleus area z-score vs screen plate; higher = larger nuclei (more mature)
[2] = tested on: hPSC-derived cortical neurons (WA09); experiment: total neurite length per nucleus (MAP2) z-score; higher = more neurite growth
[3] = tested on: hPSC-derived cortical neurons (WA09); experiment: nucleus roundness z-score vs screen plate; higher = rounder nuclei (more mature)
[4] = tested on: hPSC-derived cortical neurons (WA09); experiment: KCl-induced FOS+/EGR-1+ double-positive nuclei fraction z-score (KCl minus unstimulated); higher = stronger activity-induced IEG response

Structure (SMILES) | nucleus area z-score [1] | total neurite length per nucleus (z-score) [2] | nucleus roundness z-score [3] | KCl-induced FOS+/EGR-1+ double-positive nuclei fraction z-score [4]
NC(=O)c1ccc[n+]([C@@H]2O[C@H](COP(=O)([O-])OP(=O)(O)OC[C@H]3O[C@@H](n4cnc5c(N)ncnc54)[C@H](O)[C@@H]3O)[C@@H](O)[C@H]2O)c1 | -0.947 | -0.124 | -0.384 | 0.114
CC(C)Cn1cnc2c(N)nc3ccccc3c21 [Imiquimod] | 0.395 | -1.02 | -1.48 | -0.123
O=C1C2CC3CC1CC(O)(C3)C2 [Idramantone] | 0.678 | 0.593 | 0.251 | -0.295
CC[C@H]1OC(=O)[C@H](C)[C@@H](O[C@H]2C[C@@](C)(OC)[C@@H](O)[C@H](C)O2)[C@H](C)[C@@H](O[C@@H]2O[C@H](C)C[C@H](N(C)C)[C@H]2O)[C@](C)(O)C[C@@H](C)CN(C)[C@H](C)[C@@H](O)[C@]1(C)O [Azithromycin] | -0.805 ± 0.66 | -0.169 ± 0.17 | -0.104 ± 0.66 | 0.308 ± 1.1
CN1CC(=O)N2[C@H](c3ccc4c(c3)OCO4)c3[nH]c4ccccc4c3C[C@@H]2C1=O [Tadalafil] | 0.0277 | 1.08 | 0.0749 | 0.427
CC[C@@H]([C@H](C)O)n1ncn(-c2ccc(N3CCN(c4ccc(OC[C@@H]5CO[C@@](Cn6cncn6)(c6ccc(F)cc6F)C5)cc4)CC3)cc2)c1=O [Posaconazole] | 0.0596 | 0.249 | 0.884 | -0.582
COc1ccc(-n2c(SCCCN3C(=O)c4cccc5cccc(c45)C3=O)nnc2-c2ccncc2)cc1 | -0.362 | -0.283 | 0.262 | 0.413
C[C@]12CCC(=O)C=C1CC[C@@H]1[C@@H]2[C@@H](O)C[C@@]2(C)[C@H]1CC[C@]2(O)C(=O)CO [Hydrocortisone] | -0.0443 | 0.666 | 0.822 | 2.37
NC(=O)c1noc([C@H](CCCC2CCCCC2)CC(=O)NO)n1 | 0.46 | 0.766 | 0.697 | 1.24
C[C@@H]1O[C@@H](OC[C@H]2O[C@@H](Oc3c(-c4ccc(O)c(O)c4)oc4cc(O)cc(O)c4c3=O)[C@H](O)[C@@H](O)[C@@H]2O)[C@H](O)[C@H](O)[C@H]1O [Rutin] | -0.267 | 0.41 | 0.199 | 0.779
CCN(CC)Cc1ccc2cc(COC(=O)Nc3ccc(C(=O)NO)cc3)ccc2c1 [Givinostat (ITF2357)] | -14.2 | -5.79 | -5.66 | -2.13
C[S+]([O-])c1ccc(-c2nc(-c3ccc(F)cc3)c(-c3ccncc3)[nH]2)cc1 (stereo not given) | -0.0249 | -0.47 | -1.33 | 0.152
Cc1c(C(=O)Nc2ccc(Oc3ccnc4[nH]cc(-c5ccccc5)c34)c(F)c2)c(=O)n(-c2ccc(F)cc2)n1C | 1.49 | 1.56 | 1.94 | 0.965
Cc1cc(Nc2cc(N3CCN(C)CC3)nc(/C=C/c3ccccc3)n2)n[nH]1 | 0.384 | -0.039 | -0.948 | -0.896
CNC[C@H](O)c1ccc(O)c(O)c1 [Epinephrine HCl] | 0.786 | -0.168 | -0.429 | 0.851
CN(C)CCN(Cc1ccccc1)c1ccccn1 [Tripelennamine HCl] | -0.31 | 0.332 | -0.0368 | -0.122
CC[C@H](C)C(=O)O[C@H]1C[C@H](O)C=C2C=C[C@H](C)[C@H](CC[C@@H](O)C[C@@H](O)CC(=O)O)[C@H]21 [Pravastatin sodium] | -0.206 | 0.639 | 1.06 | -2
C#Cc1cccc(Nc2ncnc3cc(OCCOC)c(OCCO)cc23)c1 | 1.18 | 0.689 | -0.465 | 0.886
Nc1nc2ccc(OC(F)(F)F)cc2s1 [Riluzole] | -0.268 | 0.0927 | -0.9 | -1.3
Nc1ncnc2c1c(-c1cccc(OCc3ccccc3)c1)cn2C1CC(CN2CCCC2)C1 (stereo not given) | -6.77 | -2.92 | 0.247 | 4.95
O=c1oc2cc(O)ccc2s1 [Tioxolone] | 0.377 | 0.472 | -0.262 | -0.853
Cc1nn(C)c2c1C(c1ccc(C(F)(F)F)cc1)C(C#N)=C(N)O2 (stereo not given) | 0.95 | -0.0626 | 0.487 | 0.216
CC(=O)OCC(=O)[C@@]12N=C(C)O[C@@H]1C[C@H]1[C@@H]3CCC4=CC(=O)C=C[C@]4(C)[C@H]3[C@@H](O)C[C@@]12C [Deflazacort] | 0.2 | 1.82 | 0.875 | 1.04
COc1cc(C(C)=O)ccc1OCCCN1CCC(c2noc3cc(F)ccc23)CC1 [Iloperidone] | -0.227 | -0.549 | -0.363 | -1.71
CC(=O)Nc1ccc(NC(=S)NC(=O)c2ccc(C(C)(C)C)cc2)cc1 [Tenovin-1] | 0.26 | 1.11 | 1 | 0.25
N=C(NCCCCCCNC(=N)NC(=N)Nc1ccc(Cl)cc1)NC(=N)Nc1ccc(Cl)cc1 [Chlorhexidine HCl] | -10.6 | -4.39 | -2.48 | -0.967
CCOC(=O)c1ccc(N)cc1 [Benzocaine hydrochloride] | -0.278 | 0.562 | 0.831 | -0.168
COc1cc2c(cc1OC)-c1cc3ccc(OC)c(OC)c3c[n+]1CC2 [Palmatine chloride] | -0.196 | -1.45 | -2.75 | -1.03

Structure (SMILES) | nucleus area z-score [1] | total neurite length per nucleus (z-score) [2] | nucleus roundness z-score [3] | KCl-induced FOS+/EGR-1+ double-positive nuclei fraction z-score [4]
COc1cc(-c2cn(C)c(=O)c3cnccc23)cc(OC)c1CN(C)C | 0.4 | -0.175 | 0.568 | 0.0929
CC1(C)S[C@@H]2[C@H](NC(=O)[C@H](N)c3ccccc3)C(=O)N2[C@H]1C(=O)O [Ampicillin Trihydrate] | -1.42 | -1.29 | -3.47 | 1.29
Cn1cnc2c(F)c(Nc3ccc(Br)cc3Cl)c(C(=O)NOCCO)cc21 [Selumetinib (AZD6244)] | -1.64 | 1.07 | 0.371 | 0.249
CO[C@@]1(NC(=O)C(C(=O)O)c2ccc(O)cc2)C(=O)N2C(C(=O)O)=C(CSc3nnnn3C)CO[C@@H]21 (stereo not given in full) [Moxalactam Disodium] | 1.95 | -0.913 | -1.04 | 0.0872
Cc1ccc(=O)n(-c2ccccc2)c1 [Pirfenidone] | 0.139 | -0.444 | 0.212 | 0.149
O=c1cc(N2CCOCC2)oc2c(-c3cccc4c3sc3ccccc34)cccc12 | -1.07 | -0.178 | -0.145 | -0.976
CC(C)/N=c1\cc2n(-c3ccc(Cl)cc3)c3ccccc3nc-2cc1Nc1ccc(Cl)cc1 [Clofazimine] | -0.455 | -0.417 | -0.26 | -0.592
NS(=O)(=O)NCCNc1nonc1/C(=N/O)Nc1ccc(F)c(Br)c1 | 1.12 | -0.442 | 0.371 | 0.27
CCCC[S+]([O-])c1sc2nc(-c3cccs3)cc(-c3ccccc3)c2c1N (stereo not given) | -0.493 | -0.224 | -0.44 | 1.57
C[C@H]1[C@H](C)CC[C@]2(C(=O)O)CC[C@]3(C)C(=CC[C@@H]4[C@@]5(C)C[C@@H](O)[C@H](O)[C@@](C)(CO)[C@@H]5CC[C@]43C)[C@H]12 [Asiatic Acid] | 0.225 | 0.268 | 0.532 | 0.825
O=C(c1cn(Cc2cncn2Cc2ccc(Br)cc2)cc1-c1cccc2ccccc12)N1CCOCC1 | -2.79 | 0.548 | 1.43 | 0.256
NC(=O)c1ccc(N(C(N)=O)c2c(F)cccc2F)nc1-c1ccc(F)cc1F | 0.588 | 0.484 | 0.882 | 1.79
CCCc1nn(C)c2c(=O)[nH]c(-c3cc(S(=O)(=O)N4CCN(C)CC4)ccc3OCC)nc12 [Sildenafil Mesylate] | -0.112 | -0.234 | -0.0789 | -0.749
CC(C)c1cc(C(=O)N2Cc3ccc(CN4CCN(C)CC4)cc3C2)c(O)cc1O | -3.53 | -2.18 | -3.81 | -2.64
CC(C)Cc1ccc(C(C)C(=O)O)cc1 (stereo not given) [Ibuprofen] | -0.0447 | 0.376 | 0.697 | 0.807
C=CC(=O)Nc1cccc(Nc2nc(Nc3ccc(N4CCN(C(C)=O)CC4)cc3OC)ncc2C(F)(F)F)c1 | -0.128 | -0.356 | -0.68 | -0.545
Cc1ccc2nc(CN(CCN(Cc3nc4ccc(C)cc4[nH]3)Cc3nc4ccc(C)cc4[nH]3)Cc3nc4ccc(C)cc4[nH]3)[nH]c2c1 | -15.1 | -6.32 | 0.0134 | -0.939
COC(=O)Nc1nc2cc([S+]([O-])c3ccccc3)ccc2[nH]1 (stereo not given) [Oxfendazole] | -0.433 | 0.909 | 2.29 | 1.55
COc1ccc(C(Cl)=C(c2ccc(OC)cc2)c2ccc(OC)cc2)cc1 [Chlorotrianisene] | 1.29 | -0.582 | -0.369 | -0.0486
CCCCCCCCCCCCCCCCOP(=O)([O-])OCC[N+](C)(C)C [Miltefosine] | 1.23 | 0.0897 | -0.0288 | 0.403
O=c1ncccn1[C@@H]1O[C@H](CO)[C@@H](O)[C@H]1O [Zebularine] | -0.107 | 1.74 | 0.482 | 0.302
C[C@@H]1C(=O)O[C@H]2C[C@@]34[C@H]5C[C@@H](C(C)(C)C)[C@]36[C@@H](OC(=O)[C@@H]6O)O[C@@]4(C(=O)O5)[C@]21O [Ginkgolide A] | -0.781 | -0.233 | -0.00754 | -0.376
CO[C@@H](C(=O)N1Cc2[nH]nc(NC(=O)c3ccc(N4CCN(C)CC4)cc3)c2C1)c1ccccc1 | 0.254 | -0.00667 | -0.768 | -0.569
COc1ccc2cccc(CCNC(C)=O)c2c1 [Agomelatine] | -0.702 | 0.435 | 1.8 | 3.36
Cc1c(N(C)C)c(=O)n(-c2ccccc2)n1C [Amidopyrine] | 0.429 | 0.146 | 0.416 | 1.43
COC(=O)C1=C(C)NC(C)=C(C(=O)OCCN2CCN(C(c3ccccc3)c3ccccc3)CC2)C1c1cccc([N+](=O)[O-])c1 (stereo not given) [Manidipine 2HCl] | -7.95 | -4.14 | -5.79 | -0.579
Nc1nc(Nc2ccc3c(c2)CCC(N2CCCC2)CC3)nn1-c1cc2c(nn1)-c1ccccc1CCC2 (stereo not given) | -10.2 | -5.38 | -2.02 | -23.4
